The values below come from PubChem BioAssay (NCATS).

Broadly, the AC50 is the concentration at which the activity in the assay is half-maximal.

This is one part of the list. These are further read-outs of the screen, such as a control signal, another cell line or another target. No call is given for them. Compounds called inactive in the main read-out are mostly missing here. The note in brackets gives the kind of curve behind each potency; many fits are weak.

A short description of this test: qHTS assay for small molecule antagonists of peroxisome proliferator-activated receptor gamma signaling (AID 588537). As to conditions: HEK293 PPARg-UAS-bla, beta-lactamase ratio, antagonist mode; measured here: W460 blue channel. The essentials: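 Compounds are tested as concentration series for inhibition of rosiglitazone-driven (50 nM) reporter expression in GeneBLAzer PPAR-gamma-UAS-bla HEK293 cells. After 16 h at 37 C, CCF4 substrate is added for 2 h at room temperature and blue/green fluorescence is measured.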
A general note: qHTS replaces the single test concentration by a dilution series.
As to `C=Cc1ccccc1Br`, the AC50 is 44.7 µM [falling, single point].
As for `CCCCCC1CCC(=O)O1` (stereo not given), the AC50 is 0.0355 µM [falling, full curve, poor fit].
Regarding `c1c[nH]cn1`, the AC50 is 50.1 µM [rising, single point].
For `CCCC=O`, the half-maximal activity concentration (AC50) was 31.6 µM [rising, single point].
On to `Cc1ccccc1C#N`, for which the AC50 was 70.8 µM [rising, single point].
Regarding `CCCC(O)C(CC)CO` (stereo not given), the AC50 was 63.1 µM [rising, single point].
`N#CCc1ccccc1[N+](=O)[O-]`: the AC50 is 63.1 µM [rising, single point].
On to `C=C(C)OC(C)=O`, for which the AC50 was 50.1 µM [rising, single point].
The figure for `C=CCOC(=O)COCCC(C)C` is 50.1 µM [rising, single point]; for `CCSC(=O)N(CC(C)C)CC(C)C` it is 0.00562 µM [falling, full curve, poor fit].
For `CC(=O)c1ccccn1`, the AC50 is 63.1 µM [rising, single point].
With `Cc1ccc(C)c(N)c1`, the AC50 was 50.1 µM [rising, single point].
As for `CC(CCC(=O)O)(c1ccc(O)cc1)c1ccc(O)cc1`, the AC50 was 50.1 µM [rising, single point].
Take `Cc1c(N)cccc1Cl`: the AC50 is 50.1 µM [rising, single point].
The figure for `CN1[C@H]2CC(OC(=O)[C@H](CO)c3ccccc3)C[C@H]1[C@H]1O[C@H]12` (stereo not given in full) is 70.8 µM [rising, single point]; for `c1ccc2n[nH]nc2c1` it is 17.8 µM [falling, partial curve, poor fit].
In the case of `Cc1cc(C(=O)O)ccc1[N+](=O)[O-]`, the AC50 is 70.8 µM [rising, single point].
Turning to `C=C(C)C(N)=O`, the AC50 is 50.1 µM [rising, single point].
The same measure for `CCN(Cc1cccc(S(=O)(=O)O)c1)c1ccc(C(=C2C=CC(=[N+](CC)Cc3cccc(S(=O)(=O)O)c3)C=C2)c2ccccc2S(=O)(=O)[O-])cc1`: 0.00126 µM [falling, full curve, poor fit]; for `Cc1c(Cl)cccc1Cl`: 0.0141 µM [falling, full curve, poor fit].
Turning to `CCCCC(CC)COC(=O)/C=C\C(=O)OCC(CC)CCCC` (stereo not given), the AC50 is 0.00126 µM [falling, full curve, poor fit].
On to `Cc1cc(C2(c3cc(C)c(O)cc3C)OS(=O)(=O)c3ccccc32)c(C)cc1O`, for which the AC50 was 50.1 µM [rising, single point].
As to `Cc1ccc(N(C)C)cc1`, the AC50 was 50.1 µM [rising, single point].
As for `Nc1nc(N)nc(-c2ccccc2)n1`, the AC50 is 0.0355 µM [falling, full curve, poor fit].
For the molecule `Cc1ccc([N+](=O)[O-])c(C)c1`, the AC50 is 70.8 µM [rising, single point].
